Data taken from patent US20120141382.
Construct, isoform or probe ends are uncertain for at least one entry.

Tests used:
Test in all cases: binding assay
[1] = target: Green fluorescent protein (GFP) (UniProt P42212); conditions: CITED WO 2007/147149; inhibits GFP fluorescence; purified recombinant protein; protein details: Millipore
eCFP = eCFP (UniProt P42212); conditions: CITED WO 2007/147149; roughly equivalent affinity to GFP; enhances fluorescence; purified recombinant protein
eGFP = eGFP (UniProt P42212); conditions: CITED WO 2007/147149; roughly equivalent affinity to GFP; purified recombinant protein
eYFP = eYFP (UniProt P42212); conditions: CITED WO 2007/147149; roughly equivalent affinity to GFP; enhances fluorescence; purified recombinant protein

In the case of “GCGUGAGACGUCUUGAUGAAAUCCGGCUCGGCAAUGGUUCGUGGCGAAUUGGGUGGGGAAAGUCCUUAAAAGAGGGCCACCACAGAAGCUUGUGGAGUUAACAGCAA [AptGFP-AP3]”, the Kd [1] is reported as 14.4 nM, the binding result (eCFP) is reported as “binds” and the binding result (eGFP) is reported as “binds”. “GCGUGAGACGUCUUGAUGAAAUCCGGCUCGGCAAUGGUUCGUGGCGAAUUGGGUGGGGAAAGUCCUUAAAAGAGGGCCACCACAGAAGCUUGUGGAGUUAACAGCAA [AptGFP-AP3]”: binds (eYFP).
